Tested on: CART19 cells
Experiment: RNA-sequencing of CART19 cells co-cultured with irradiated JeKo cells
Type: cell-based, human
Conditions: 10 μM, 72 hours, vs DMSO control

SMILES: NC(=O)[C@H]1CCN(c2ncnc(N)c2F)C[C@@H]1N1CCC[C@@H](Nc2cc(Cl)cc(C(F)(F)F)c2)C1=O [vecabrutinib, (3R,3′R,4′S)-1′-(6-amino-5-fluoropyrimidin-4-yl)-3-((3-chloro-5-(trifluoromethyl)phenyl)amino)-2-oxo-[1,3′-bipiperidine]-4′-carboxamide]
- genes downregulated: approximately 400 genes
- genes involved in the PI3K/AKT pathway and the Th1 pathway: upregulated
- genes upregulated: approximately 400 genes
- genes differentially regulated (FIG. 5): approximately 800 genes

From patent publication US20260083848A1, “COMBINATION OF CAR T-CELL THERAPY WITH BTK INHIBITORS AND METHODS OF USE THEREOF” (priority 2021, published 2026)
